One molecule from US20240390459A1, “ANTI-DEPRESSION AND ANTI-ANXIETY APPLICATION OF POLYPEPTIDE AND COMPLEX” (SHENZHEN CHENYANG BIOLOGICAL TECHNOLOGY CO., LTD, priority 2021, published 2024) can be followed below.

The chains behind the UniProt entries cited, without tags or fusion partners. Where a name states a change or a piece, a line headed by the entry shows the natural chain unless it says otherwise.
UniProt Q61616: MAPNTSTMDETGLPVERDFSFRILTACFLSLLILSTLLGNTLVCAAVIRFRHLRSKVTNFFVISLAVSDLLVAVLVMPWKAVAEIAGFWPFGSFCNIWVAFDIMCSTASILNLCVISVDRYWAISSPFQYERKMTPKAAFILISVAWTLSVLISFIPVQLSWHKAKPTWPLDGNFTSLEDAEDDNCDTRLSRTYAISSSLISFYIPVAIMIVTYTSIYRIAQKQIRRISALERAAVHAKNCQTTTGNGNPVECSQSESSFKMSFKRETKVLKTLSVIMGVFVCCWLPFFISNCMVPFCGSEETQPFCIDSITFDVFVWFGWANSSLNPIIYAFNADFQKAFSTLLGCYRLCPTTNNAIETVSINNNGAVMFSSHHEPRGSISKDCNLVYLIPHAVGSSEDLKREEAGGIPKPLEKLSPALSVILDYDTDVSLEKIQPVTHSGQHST

No constants are given. Whether binding was seen depends on the method and setting. Binding seen in cells or lysates may run through a third protein. Some binding calls cover weakened binding; strength is not graded here. Where a sequence is shown, tags or fusion partners need not be part of it.

The experiment deals with Dopamine D1 receptor (D1R), endogenous, from mouse hippocampus tissue (mouse) (UniProt Q61616). Briefly: GST pulldown from mouse hippocampus extract, Western blot.

B1: GST fusion protein containing a SV region of 5-HT2AR (GST-5HT2AR-SV) (peptide, not shown: a dimerising Fc or GST)
chain: SKDNSDGVNEKVSCV
Regarding B1, the binding entry is “binds”.
